{
  "source": "PubChem BioAssay AID651640",
  "about": "(Broad Institute, 2012)",
  "note": "Screen size: about 350,000 compounds; about 6,000 (1.7%) were called active. Inconclusive means that the source gave no clear call. Such entries were picked first, then a sample of the others. No stated cut-off is given here; in the data, active means CPE inhibition above about 20% (passing the limit was not always enough); inconclusive means no clear call, values can overlap the other calls; tested in BHK-21 cells. Where a structure was tested more than once in an assay, its records may differ in their call.",
  "data": [
    {"assay": "protection of cells from dengue 2 killing – plate reader, single concentration, primary screen (AID 651640);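 further: 0% = median of neutral control wells and 100% = median of positive control wells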", "conditions": "DENV2-infected cells, cytopathic effect rescue, at 9.99 µM, stronger effect = higher value", "values": [
      {"smiles": "Cc1noc(C)c1S(=O)(=O)Nc1ccc2c(c1)CC(=O)N([C@@H](C)CO)C[C@@H](C)[C@@H](CN(C)C(=O)Nc1ccc(C(F)(F)F)cc1)O2", "CPE inhibition": "active: 46.5%"},
      {"smiles": "COc1ccc(-c2[nH]ncc2CN(CCO)CC23CC4CC(CC(C4)C2)C3)c(OC)c1", "CPE inhibition": "inactive: 15.1%"},
      {"smiles": "CCS(=O)(=O)N1CCCCN2[C@H](CO)[C@H](c3ccc(-c4ccccc4)cc3)[C@H]2C1", "CPE inhibition": "inactive: -14.8%"},
      {"smiles": "Cc1nnc2ccc(-c3cccc(NC(=O)Cc4cccs4)c3)nn12", "CPE inhibition": "inactive: 5.69%"},
      {"smiles": "CCOC(=O)C1=C[C@@H](C(C)C)N(S(=O)(=O)c2ccc([N+](=O)[O-])cc2)[C@H]1c1ccccc1", "CPE inhibition": "inconclusive: 21%"},
      {"smiles": "COCC(=O)N1C[C@H]2[C@@H](c3ccccc31)[C@@H](CO)N2Cc1ccccc1F", "CPE inhibition": "inactive: -6.21%"},
      {"smiles": "COc1ccc(CCN(C)C(=O)c2c(C)nn(CC(C)C)c2Cl)cc1OC", "CPE inhibition": "inactive: -8.98%"},
      {"smiles": "C[C@H](CO)N1C[C@H](C)[C@H](CN(C)C(=O)C2CCC2)Oc2ncc(C#Cc3cccc(F)c3)cc2C1=O", "CPE inhibition": "inactive: -1.57%"},
      {"smiles": "C[C@@H]1CN([C@H](C)CO)C(=O)c2cc(NC(=O)Nc3ccc(C(F)(F)F)cc3)ccc2O[C@H]1CN(C)C(=O)NC1CCCCC1", "CPE inhibition": "active: 126%"},
      {"smiles": "OC(CCN1CCC2CCC(C2)C1)c1ccc(Br)cc1", "note": "(stereo unspecified)", "CPE inhibition": "inconclusive: 25.3%"},
      {"smiles": "CC(=O)Nc1c(-c2ccccc2)nc2ccc(Cl)cn12", "CPE inhibition": "inconclusive: 49.2%"},
      {"smiles": "CC(C)CC(=O)c1c(O)cc(O)c2c1OC1=C(C(=O)C(C)(C)C(=O)C1(C)C)C2CC(C)C", "note": "(stereo unspecified)", "CPE inhibition": "inconclusive: 42.1%"},
      {"smiles": "C[C@H](CO)N1C[C@H](C)[C@@H](CN(C)Cc2cncnc2)Oc2ncc(C#C[C@@H](C)O)cc2C1=O", "CPE inhibition": "inconclusive: 45.5%"},
      {"smiles": "COc1cccc(-c2ccc([C@H]3[C@@H](CO)N4C(=O)CN(C(=O)C5CCOCC5)C[C@@H]34)cc2)c1", "CPE inhibition": "active: 32.9%"},
      {"smiles": "CCC(C)c1ccc(NC(=O)NCCN2CCCCC2)cc1", "note": "(stereo unspecified)", "CPE inhibition": "active: 29.7%"},
      {"smiles": "CCO/C(C)=C1/SC(=S)NC1=O", "CPE inhibition": "inconclusive: 46.2%"},
      {"smiles": "O=C1NC(Cc2ccccc2)c2nc3ccc(Cl)cc3c(=O)n2-c2ccccc21", "note": "(stereo unspecified)", "CPE inhibition": "active: 68.1%"},
      {"smiles": "O=C(NC1CCN(c2ncccn2)CC1)c1ccccc1F", "CPE inhibition": "inconclusive: 30.5%"},
      {"smiles": "COc1ccccc1N(C(=O)c1snc(C(N)=O)c1N)C(C(=O)NC1CCCCC1)c1cccc(OC)c1OC", "note": "(stereo unspecified)", "CPE inhibition": "inactive: 9%"},
      {"smiles": "O=C(COC(=O)c1ccc(S(=O)(=O)C(F)F)cc1)Nc1ccccc1C(=O)NC1CC1", "CPE inhibition": "inconclusive: 46.4%"},
      {"smiles": "C=CCCN(Cc1ccccc1)S(=O)(=O)c1cc(Br)ccc1Br", "CPE inhibition": "inconclusive: 32.3%"},
      {"smiles": "Cc1noc(C)c1S(=O)(=O)N(C)C[C@@H]1OCc2cn(nn2)CCCC(=O)N([C@@H](C)CO)C[C@@H]1C", "CPE inhibition": "inactive: 5.23%"},
      {"smiles": "O=C(C[C@@H]1C=C[C@H](NC(=O)c2cccnc2)[C@H](CO)O1)NCc1ccc(Cl)c(Cl)c1", "CPE inhibition": "inconclusive: 20.9%"},
      {"smiles": "OCCC1CN(Cc2ccc(F)cc2Cl)CCN1CCc1ccccc1", "note": "(stereo unspecified)", "CPE inhibition": "inconclusive: 21.8%"},
      {"smiles": "CCN(CC(=O)Nc1ccc(NC(C)=O)cc1)C(=O)/C=C/c1ccc(S(=O)(=O)N2CCCCCC2)cc1", "CPE inhibition": "inconclusive: 52.9%"},
      {"smiles": "C[C@H](CO)N1C[C@H](C)[C@H](CN(C)Cc2ccc(Cl)c(Cl)c2)Oc2ccc(NS(=O)(=O)c3ccccc3)cc2C1=O", "CPE inhibition": "inconclusive: 31.8%"},
      {"smiles": "C[C@H]1CN([C@@H](C)CO)S(=O)(=O)c2ccc(Br)cc2O[C@@H]1CN(C)S(=O)(=O)c1ccccc1F", "CPE inhibition": "active: 35.6%"},
      {"smiles": "Cc1ccc(-c2ccc3c(c2)O[C@H](CN(C)CC2CC2)[C@H](C)CN([C@@H](C)CO)S3(=O)=O)cc1", "CPE inhibition": "inconclusive: 25.5%"},
      {"smiles": "CCc1ccccc1NS(=O)(=O)c1c(C(=O)N2CCCCCC2)c(C)n(C)c1C", "CPE inhibition": "inconclusive: 29%"},
      {"smiles": "CC(=O)Nc1ccc(S(=O)(=O)NCCC(=O)OCc2ccc([N+](=O)[O-])cc2)cc1", "CPE inhibition": "inconclusive: 23.3%"},
      {"smiles": "C[C@@H]1CN([C@@H](C)CO)C(=O)c2cc(C#CC3CC3)cnc2O[C@@H]1CN(C)C(=O)Nc1ccc(F)cc1", "CPE inhibition": "inactive: -1.29%"},
      {"smiles": "Cc1ccc(S(=O)(=O)N(C)C[C@H]2Oc3ccc(NC(=O)C4CCCCC4)cc3C(=O)N([C@@H](C)CO)C[C@H]2C)cc1", "CPE inhibition": "inactive: -13.9%"},
      {"smiles": "CN(Cc1ccccc1)C(=O)c1[nH]cnc1C(=O)N[C@@H](Cc1ccccc1)C(=O)OC(C)(C)C", "CPE inhibition": "inconclusive: 53.1%"},
      {"smiles": "C[C@@H](NC(=O)c1ncn(C)c1C(=O)N[C@H](C)c1ccccc1)c1ccccc1", "CPE inhibition": "active: 89.8%"},
      {"smiles": "C/C(=N/NC(=O)CCC(=O)Nc1cccc(Cl)c1)c1ccc(C)cc1", "CPE inhibition": "active: 27.6%"},
      {"smiles": "CCCNC(=O)C[C@H]1CC[C@@H]2[C@H](COc3ccc(NC(=O)C4CCCC4)cc3C(=O)N2C)O1", "CPE inhibition": "inactive: -3.4%"},
      {"smiles": "Cc1cc(C)cc(OCC(=O)OCC(=O)NC2CCCCCC2)c1", "CPE inhibition": "inactive: 1.52%"},
      {"smiles": "CC(=O)N1C[C@H]2CON(C)[C@H]2C[C@H]1c1cccc(-c2ccccc2C)c1", "CPE inhibition": "inconclusive: 68%"},
      {"smiles": "C[C@@H]1CN([C@@H](C)CO)S(=O)(=O)c2ccc(-c3cncnc3)cc2O[C@@H]1CN(C)C(=O)CC1CC1", "CPE inhibition": "inactive: 14.3%"},
      {"smiles": "O=C(OCC(=O)N1CCc2ccccc21)[C@@H]1CCCN1S(=O)(=O)c1ccccc1F", "CPE inhibition": "active: 48.5%"},
      {"smiles": "COc1ccc2c3c([nH]c2c1)[C@@H](CO)N(C(=O)c1ccncc1)CC31CN(C(=O)C2CCC2)C1", "CPE inhibition": "inactive: 13.5%"},
      {"smiles": "CN(CCc1ccccn1)C(=O)CCC1CCCN(C(=O)c2cccc(N(C)C)c2)C1", "note": "(stereo unspecified)", "CPE inhibition": "active: 34.6%"},
      {"smiles": "C=C(C)c1cccc(C(C)(C)NC(=O)N2CCN(c3ccccn3)CC2)c1", "CPE inhibition": "inconclusive: 30.1%"},
      {"smiles": "C[C@@H]1CN([C@@H](C)CO)C(=O)c2cc(NC(=O)Cc3cn(C)c4ccccc34)ccc2O[C@@H]1CN(C)Cc1ccc(Oc2ccccc2)cc1", "CPE inhibition": "inconclusive: 28.3%"},
      {"smiles": "C/C=C/c1ccc([C@@H]2[C@H](CO)N3C(=O)CN(C(=O)Nc4cccc(OC)c4)C[C@@H]23)cc1", "CPE inhibition": "inconclusive: 22.7%"},
      {"smiles": "Cn1c(=O)c2c(nc(NCc3ccco3)n2CC(O)CO)n(C)c1=O", "note": "(stereo unspecified)", "CPE inhibition": "inconclusive: 22.9%"},
      {"smiles": "O=C(NC[C@@H]1CC[C@H]2[C@H](CN2Cc2ccccc2F)O1)C1CCCCC1", "CPE inhibition": "inactive: 3.63%"},
      {"smiles": "COc1ccc(S(=O)(=O)N(C)C[C@H]2Oc3ccc(NS(=O)(=O)c4ccc(F)cc4)cc3CC(=O)N([C@@H](C)CO)C[C@@H]2C)cc1", "CPE inhibition": "active: 76.7%"},
      {"smiles": "O=C(c1ccccc1)c1ccccc1N1C(=O)C=CC1=O", "CPE inhibition": "inconclusive: 25.2%"},
      {"smiles": "COCC(C)n1c(C)cc(C(=O)COC(=O)CN=C2NS(=O)(=O)c3ccccc32)c1C", "note": "(stereo unspecified)", "CPE inhibition": "inconclusive: 43.1%"},
      {"smiles": "COCC(=O)N1CC2(C1)CN(Cc1cccc(OC)c1)[C@H](CO)c1[nH]c3cc(OC)ccc3c12", "CPE inhibition": "inconclusive: 58%"},
      {"smiles": "COc1ccc2c3c(n(C)c2c1)[C@@H](CO)N(CC1CC1)CC31CN(C(=O)c2ccc(F)cc2)C1", "CPE inhibition": "inconclusive: 67.7%"},
      {"smiles": "CC(=O)Nc1ccc(S(=O)(=O)N2CCC(C(=O)c3ccc(Cl)cc3)CC2)cc1", "CPE inhibition": "inconclusive: 25.3%"},
      {"smiles": "COc1ccccc1N(CC(=O)N1CCCCC1C)S(=O)(=O)c1ccc(Cl)cc1", "note": "(stereo unspecified)", "CPE inhibition": "inactive: 3.22%"},
      {"smiles": "CC(C)NC(=O)Nc1ccc2c(c1)C(=O)N([C@@H](C)CO)C[C@@H](C)[C@@H](CN(C)Cc1ccc(C(F)(F)F)cc1)OCCCC[C@@H](C)O2", "CPE inhibition": "active: 55.7%"},
      {"smiles": "Cc1ccc(CNC(=O)c2c(-c3ccccc3)sc3ccccc23)o1", "CPE inhibition": "inconclusive: 75.9%"},
      {"smiles": "O=C(CN1C(=O)NC2(CCc3ccccc32)C1=O)NCc1ccc(F)cc1", "note": "(stereo unspecified)", "CPE inhibition": "inconclusive: 26.6%"},
      {"smiles": "CS(=O)(=O)c1cccc(S(=O)(=O)N2CCN(c3ccccn3)CC2)c1", "CPE inhibition": "inactive: 1.38%"},
      {"smiles": "COc1ccc(NC(=O)Nc2ccc3c(c2)C(=O)N([C@@H](C)CO)C[C@H](C)[C@H](CN(C)S(=O)(=O)c2cn(C)cn2)O3)cc1", "CPE inhibition": "inactive: -2.39%"},
      {"smiles": "O=C(C[C@H]1CC[C@@H](NC(=O)c2ccccc2)[C@H](CO)O1)Nc1ccc(-c2ccccc2)cc1", "CPE inhibition": "inactive: 0.456%"},
      {"smiles": "CCN(CC)CCCNC(=S)N(Cc1cccnc1)Cc1cc2cc(C)cc(C)c2[nH]c1=O", "CPE inhibition": "inconclusive: 23.1%"},
      {"smiles": "CC[C@@]1(C(=O)OC)N[C@H](CN(C)C(=O)C2CCCCC2)[C@@H]2C(=O)N(C)C(=O)[C@@H]21", "CPE inhibition": "inconclusive: 22.8%"},
      {"smiles": "C[C@@H]1CN([C@H](C)CO)C(=O)c2cc(NC(=O)NC3CCCCC3)ccc2O[C@@H]1CN(C)C(=O)Nc1ccc2c(c1)OCO2", "CPE inhibition": "inactive: -4.4%"},
      {"smiles": "CC(/C=C/c1ccccc1)=N\\NC(=O)CCc1ccccc1", "CPE inhibition": "inconclusive: 20.8%"},
      {"smiles": "O=C1c2ccc([N+](=O)[O-])cc2C(=O)N1Cc1cccnc1", "CPE inhibition": "active: 90%"},
      {"smiles": "C[C@@H]1CCCCO[C@@H](CN(C)C(=O)Nc2ccc(C(F)(F)F)cc2)[C@H](C)CN([C@@H](C)CO)C(=O)c2cc(NS(=O)(=O)c3ccccc3)ccc2O1", "CPE inhibition": "active: 54.2%"},
      {"smiles": "COc1ccccc1NC(=O)N1C[C@@H]2[C@H](c3ccccc31)[C@H](CO)N2C(=O)C1CCCC1", "CPE inhibition": "inconclusive: 24%"},
      {"smiles": "CCCC(=O)Nc1ccc2c(c1)C(=O)N(C)[C@H]1CC[C@@H](CC(=O)NCc3ccccc3F)O[C@H]1CO2", "CPE inhibition": "inconclusive: 29.1%"},
      {"smiles": "C[C@H]1CN([C@@H](C)CO)C(=O)c2cc(NC(=O)Nc3cccc4ccccc34)ccc2O[C@@H]1CN(C)C(=O)Nc1ccc2c(c1)OCO2", "CPE inhibition": "active: 22.6%"},
      {"smiles": "CCOC(=O)c1csc(NC(=O)c2cc(-c3ccccn3)nc3ccccc23)n1", "CPE inhibition": "inconclusive: 21.3%"},
      {"smiles": "COc1ccc(NC(=O)Nc2ccc3c(c2)CC(=O)N([C@H](C)CO)C[C@@H](C)[C@@H](CN(C)S(=O)(=O)c2ccccc2)O3)cc1", "CPE inhibition": "inconclusive: 26.9%"}
    ]}
  ]
}
